Data published in patent US20170343557A1, “USE OF 5-METHOXYTRYPTOPHAN AS DIAGNOSTIC AGENT OF INFLAMMATORY DISEASES” (NATIONAL HEALTH RESEARCH INSTITUTES, priority 2014, published 2017).

Test: Serum 5-MTP in murine sepsis model (LPS infusion)
Format: in vivo, C57BL/6 mice
Details: n=8

## COc1ccc2[nH]cc(C[C@H](N)C(=O)O)c2c1 [5-MTP, 5-methoxytryptophan]
Mice 24 h after LPS infusion
  Serum 5-MTP level: 0.036 µM
Mice prior to LPS treatment
  Average serum 5-MTP level: 0.187 µM
